Test results: the supplement of paper PMC3334620
The full ranking holds about 33,000 sequences; the median of “E-score (-0.5 to 0.5)” is about -0.0034, and the highest 2% start at about 0.25. Some of the results follow.

Biological target: T1, Yap3 (UniProt P38749)
T1 sequence: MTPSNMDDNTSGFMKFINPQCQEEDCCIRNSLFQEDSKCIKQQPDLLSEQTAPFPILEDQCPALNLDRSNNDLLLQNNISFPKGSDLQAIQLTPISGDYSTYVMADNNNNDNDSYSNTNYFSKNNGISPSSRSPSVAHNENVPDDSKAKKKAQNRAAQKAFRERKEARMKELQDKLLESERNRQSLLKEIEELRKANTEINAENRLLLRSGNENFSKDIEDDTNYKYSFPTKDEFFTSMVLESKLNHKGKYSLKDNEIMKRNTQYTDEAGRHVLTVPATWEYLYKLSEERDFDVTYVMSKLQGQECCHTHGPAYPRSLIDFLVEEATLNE
Assay: PBM E-score (8-mer binding enrichment) (E-score (-0.5 to 0.5)); higher = stronger / more preferred TF binding
Conditions: protein concentration: 100 nM; construct: GST-full length
Summary of the method: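 Full-length yeast transcription factors or their DNA-binding domains, GST-tagged and expressed with PURExpress, were applied at about 100-200 nM to universal all-10-mer Agilent arrays. These arrays had been made double-stranded by primer extension on fresh or once-stripped slides. Detection used fluorescent anti-GST, normalisation used masliner, and E-scores for ungapped eight-base words pooled with reverse complements came from the Universal PBM Analysis Suite.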

Sequence	PBM E-score
AGAATTAG	0.0612
ATAATCTC	0.17
CCTGACTA	0.202
TGAAGCAA	-0.0816
ATGCGAAC	-0.0417
GGTCTTTA	0.01
AACCTGCT	-0.0536
CCGCGCTC	0.0144
CATTTACG	0.0357
ATCGTTAG	0.0757
AATCGAGA	0.0486
CGTAGCGC	-0.167
GAATCGCA	-0.158
GCTTCTTA	-0.0834
ATTTCGAG	0.141
ATACGGAG	0.0911
CGTAGTAG	-0.0666
AATAGCAA	0.151
ATGCGTTA	0.0735
GCCGTAGA	0.0616
GGTAAGTA	0.0243
AAAAGCAA	0.222
ATCCCGAC	0.0397
ATTGGTAG	0.0436
AGGGGCAG	-0.194

Sequence	PBM E-score
ACAAGACA	0.0972
ACCGATAC	0.00349
AATACAAA	0.259
ACGCGGTG	-0.168
GAAGATGC	-0.0796
CCGATATC	0.0559
AAGGGCTG	-0.267
GGAGGGAA	-0.173
GAACCTAA	0.0358
CGCCAAAC	-0.0374
GGCGATCA	-0.179
AGATTGGA	0.0555
CCTATACC	-0.0683
CAGACAGG	-0.236
AATGCCGT	0.217
AGGACGAA	0.0409
CTCGCCCA	-0.0854
TAAAGCAA	0.137
CATTGCAA	0.0671
AGCCTTCA	-0.0428
CTAGTGAC	-0.116
TGCAGCCA	0.0614
AATCACTA	0.077
ATTGGGGA	-0.104
CATGAGCC	-0.128

Sequence	PBM E-score
CGCAGTAG	-0.12
CCATAGCG	-0.0496
ATTGTCCG	0.216
AATTGCCA	0.0936
CTCGATGA	0.0654
GGTACAAA	0.0676
TATCACCA	0.0589
AGCCAGCT	-0.102
AACACCTC	-0.0135
CGCATCGA	0.0858
CTAGAGGC	-0.141
GTGCCGGA	-0.167
CCGTCTCG	-0.0455
GGACGGGA	-0.213
GAGTAAGA	0.0687
AACCACTA	0.0336
GCTTAACC	-0.00627
ACGATCGA	0.121
AGTGCAGC	-0.0223
ATCACGGC	0.0643
CGCTTTTA	0.115
GTTCCTGA	-0.119
AGTGACGC	-0.0717
AATATGAT	0.279
ACCTGGAG	-0.0509

Sequence	PBM E-score
TACTGCAA	0.101
CGCATAAC	0.183
ATTACGTC	0.33
TATTCCGA	0.189
AACTTGCT	-0.0686
CACGATTC	0.0883
AACAAGGC	0.0204
CGAAACAC	0.0611
GACTTCCC	-0.173
CAGGCCTC	-0.125
GCTCGACA	-0.1
ACAAGTCA	-0.0818
AAATGCAT	0.125
ATGACAGG	-0.0381
AGATGCTA	-0.0872
ACACGTGG	-0.047
CTGTCGGA	-0.035
GGCATAAC	0.0534
AACATGGG	0.105
TGCAGGCA	-0.188
TACAGTGA	0.163
AGCAAGGC	-0.0698
CCAATCGC	0.131
ACCCTTGG	-0.251
TCCAGCCA	-0.157

As entered above:
TGCAGGCA | PBM E-score: -0.188
ATGACAGG | PBM E-score: -0.0381
CTGTCGGA | PBM E-score: -0.035
AGATGCTA | PBM E-score: -0.0872

Next part:

Sequence	PBM E-score
TCAGGAAA	-0.0413
ATATTGGA	0.171
AAGTGATC	0.0526
CTCGGTCA	-0.0148
CCGAGCCA	-0.0811
ACCCGGGG	-0.208
TAGTGGGA	-0.0516
GATTACGC	0.108
AATTTAAT	0.261
GCGAGAGC	-0.189
CATTATCA	0.161
ACCGCTAA	0.0803
AGACAATA	0.339
AGCGAAAG	-0.00489
TAGTATGA	0.255
CGAAAGAG	-0.109
GCAAATGA	0.032
AATTTGCT	0.115
CAAATGCA	0.0707
ATAGAAGA	-0.0599
GACCAACA	0.166
GCATCATA	0.193
ACATAGGT	0.0589
GAAAGTAC	0.0642
ACACTTGA	-0.0909

Sequence	PBM E-score
CCACATAC	0.249
AGAGCCCC	-0.247
GACGATAC	0.0645
TCATAGAA	0.155
ACACACCA	0.18
GTAGACGA	-0.0932
CCTACGCC	-0.258
AGAGCGAG	-0.0518
ATCACGCC	0.00117
TCGAAGCA	-0.0793
GAACCACA	0.182
CGCCATAA	0.00011
GAGAACAC	-0.00708
GACGTGAC	-0.0761
CGGACGTC	-0.0436
ACCCAGAT	-0.103
ATAAGTCC	0.0332
TATTAAGA	-0.0373
GTATTTGA	0.137
ATCTATTC	0.147
AGATTTCA	0.0532
ATGGCATC	0.125
GGAGCGAA	-0.118
CGGTACGC	-0.146
GGGCAGTA	0.0457

Quoted from the listing for reference:
Sequence	PBM E-score
AGAGCGAG	-0.0518
ATCACGCC	0.00117
TCGAAGCA	-0.0793
GAACCACA	0.182
CGCCATAA	0.00011
GAGAACAC	-0.00708

Following part.

Sequence	PBM E-score
GGGTCACA	-0.275
CCTGTTCC	-0.0284
ACGGGATG	-0.087
CGTCGCAC	-0.118
GAAAGCGA	0.189
AACTGCTA	0.00439
CAGGTGTC	-0.0788
CCCAAAGA	-0.0276
AGCCTCTG	-0.246
AACTAAGA	0.203
GATCTAGA	-0.086
ACATCCAT	0.0624
ATCTTGTA	-0.0617
AGAATGTC	-0.00558
TACGGACA	0.00091
GACAGTGA	-0.00594
TACACGCA	-0.116
TAAGCCAA	0.105
ACACAATA	0.118
CACAACGG	-0.0672
CATGGCCG	0.078
CTTCGATC	-0.0257
